B1: Mitochondrial 2-oxoglutarate/malate carrier protein (protein, UniProt A0A8M1MZV6 1-308)
chain: MAAAADTAKPKTSPKSIKFLFGGLAGMGATVFVQPLDLVKNRMQLSGQGSKAREYKTSFHAVGSILRNEGVRGIYTGLSAGLLRQATYTTTRLGIYTILFERMSKADGTPPNFFMKALIGMTAGATGAFVGTPAEVALIRMTADGRLPPDQRRGYTNVFNALVRITREEGVTTLWRGCIPTMARAVVVNAAQLASYSQSKQALLDSGYFRDDILCHFCASMISGLVTTAASMPVDIVKTRIQNMRMIDGKPEYNNGLDVLVKVIRNEGFFSLWKGFTPYYARLGPHTVLTFIFLEQMNKFYKIYFLDS
B2: Thioredoxin (protein, UniProt Q7ZUI4 1-108)
chain: MIVVIEDQDGFDKALAGAGDKLVVVDFTATWCGPCQSIAPFYKGLSENPDYSNVVFLKVDVDDAQDVAQSCEIKCMPTFHFYKNGKKLDDFSGSNQTKLEEMVKQHKN
B3: Opsin-1, short-wave-sensitive 2 (protein, UniProt Q9W6A8 1-354)
chain: MKQQQQTPELFEDFHMPITLDVSNISAYSPFLVPQDHLGHSGVFMGMSAFMLFLFIAGTAINVLTIVCTIQYKKLRSHLNYILVNLAISNLWVSVFGSSVAFYAFYKKYFVFGPIGCKIEGFTSTIGGMVSLWSLAVVALERWLVICKPLGNFTFKTPHAIAGCILPWCMALAAGLPPLLGWSRYIPEGLQCSCGPDWYTTNNKFNNESYVMFLFCFCFAVPFSTIVFCYGQLLITLKLAAKAQADSASTQKAEREVTKMVVVMVFGFLICWGPYAIFAIWVVSNRGAPFDLRLATIPSCLCKASTVYNPVIYVLMNKQFRSCMMKMVFNKNIEEDEASSSSQVTQVSSVAPEK
B4: Retinal G-protein coupled receptor a (protein, UniProt Q567Y2 1-295)
chain: MVTSYPLPEGFSEFDVFSLGSCLLVEGLLGFFLNAVTVIAFLKIRELRTPSNFLVFSLAMADMGISTNATVAAFSSFLRYWPYGSDGCQTHGFQGFMTALASIHFIAAIAWDRYHQYCTRTKLQWSSAITLVLFTWLFTAFWAAMPLFGWGEYDYEPLRTCCTLDYSKGDRNYVSYLIPMSIFNMGIQVFVVLSSYQSIDKKFKKTGQAKFNCGTPLKTMLFCWGPYGILAFYAAVENATLVSPKLRMIAPILAKTSPTFNVFVYALGNENYRGGIWQLLTGQKIESPAIENKSK
B5: Protein SREK1IP1 (protein, UniProt Q3B7G7 1-158)
chain: MAAPGPNKDNIRAGCKRCGYPGHLTFECRNFLRVDPRKDIVLDVSSTSTEESDEEEQEALSKEKIFGSHSKGSQEDSRKEKHKKKSKERSRGKAKKRSYSSSDEEEDEMSKKKKKRKSNKKKGKKEKREKERKHKKKQKKKDTESSSSDSSSESSDTD
B6: Phosphodiesterase subunit 6C (protein, UniProt A0A8M1PI31 1-852)
chain: MADKDSVEKYLENNPQFAKEYFDKKVRCEVIAAAFEEKLDIKDPASFKDVTQVQEAAILFDMIQDMHSQPVMEKAMHKVLQRICLLVNADRCSYFIARARNGIPELATCLFDVTPTSKYEANLVNPQSEIVFPTDTGIVGQIVTTKKPANVPDVKQNPRFSDFVDKQTGYTTKNMMAAPLMQGKDPLGVVMAINKVGANEFSKEDEDVFSKYIIFATVIALQHYTNYMYNVESRRSQVLLWSASKVFEELTDIERQFHKALYTVRTYLQCERYSCGLLDMTKEKEFYDEWPIKLGDVEPYKGPKTPDGREIIFYKIIDYLLEGKEEIKVIPNPPADHWALVSGLPTYVAENGFICNMMNVAADEYFTFQKEAVDETGFVIKNVLSLPIVNKKEEIVGVATFFNRKDGKPFEEQDEQITEALTQFLGWSVLNCDTYDKLNRMEWRKEIAEEMVMYQTKATPAEVQQILNTKEKFDQNPEDCDQKEMYKLLRANIPEAKDVDLLEFSFSDFPLTETDLIKCGIRCFFELGVVEKFKVPAEVLTRWMYTVRKGYRDITYHNWRHGFNVGQTMFCLLQTGKLRRYYTDLDAFAMVAAAFCHDIDHRGTNNLYQTKSASPLAKLHGSSILERHHLQYSKNLMAEENVNIFQSLQKRQFETVQHLHDVCIIATDLALYFKKRTMFQKIVDATEPMTKEEEMVAHVANNPIRKEIIMAMMMTGCDLSAITKPWEVQSKVALMVAAEFWEQGDLERTVLDQQPIPMMDRNKSDELPKMQCGFIDFVCSFVYKEFSRFHKEITPMFDGLNNNRVHWKELADIYQAKIDAIANEKKRLEEEQAKKGGEEGGEGGKSKTCTIF
B7: Sideroflexin (protein, UniProt A1L257 1-322)
chain: MSGDLPLNINIKEPRWDQGTFMGRAQHFFMVTDPRNVLLSSEVLEDARVTVENYRLGVVKPGLTEDALWRAKYIYDSAFHPDTGEKMLLVGRMSAQVPMNMTITGCMLTFYRTTPAVVFWQWVNQSFNAVVNYTNRSGDAPITVNQLGAAYVSATTGAVVTALSLKALTKHLPAIISRFVPFAAVAAANCINIPFMRQRELKCGIPVTDAEGKRLGESTNAAQQAIVQVVVSRIGMAVPAMAIPPVIMNALEKKAFLKRFPVLNAPLQVGLVGFCLVFATPLCCALFPQKSSMKVSSLEPELQESIRQSNPHISTVYFNKGL
B8: BetaA1c-crystallin 7 (protein, UniProt B5M4A7 1-206)
chain: MNRVTAIQTNPSASGIDMAPCFKVTVFEQEHFQGKCQELTSECRNIQERGFDNIRSIRVESGAWVGYEHHDFQGQQFVLEKGEYPQWDAYSGNLGYHVERMMSLRPICSAVHQDSRMTIFEKENFMGRSVELCDDYPSLQAMGWCDKQVGSMHVQCGAFVCYEYPGYRGQQYIMECDKHSGDYQHWKDWGSHCQTPQIQSIRRIQH

For nine molecules, binding results are on record in article PMC7092623.

These are yes or no findings as the source states them, for the method shown. In cells and extracts the contact can be indirect. Here binding means that the protein was enriched with, or labelled near, the bait; the list need not be complete.

One test deals with eGFP-Rab28 Q72L (GTP-preferring) (zebrafish) (UniProt Q7ZVW0). Kind of test: affinity purification with mass spectrometry; eGFP-Rab28 (WT, Q72L or T26N) held on GFP-Trap beads from 5 dpf larval whole-eye lysates (100 eyes per replicate); IP lysis buffer 50 mM Tris HCl pH 7.5, 150 mM NaCl, 10 mM MgCl2, 1% NP-40, 1 mM DTT; 4°C, 2 h or overnight; on-bead trypsin digest, Q-Exactive; LFQ, t-test against eGFP only control.
With B1, the binding result is given as “binds”.

As to B2, the binding result is reported as “binds”.

With B3, the binding entry is on record as “binds”.

Take B4: the binding result is reported as “binds”.

With B5, the binding result is given as “binds”.

With B6, the binding result is “binds”.

For the molecule B7, the binding entry is on record as “binds”.

The target of a further test is eGFP-Rab28 (wild type) (zebrafish) (UniProt Q7ZVW0). The description is as above.
In the case of B1, the binding entry is “binds”.

B6: the binding entry is “binds”.

The next test has as its target eGFP-Rab28 T26N (GDP-preferring) (zebrafish) (UniProt Q7ZVW0). Described as above.
B1: the binding result was “binds”.

In the case of B2, the binding result is “binds”.

Regarding VHLKRGVPDRLLYRSTMALTVGGVLYCLVALYLAAQPKKK (peptide, UniProt Q7SXI1 76-115) [Cox7a2l protein], the binding result is reported as “binds”.

For B3, the binding result was “binds”.

Regarding B4, the binding entry is on record as “binds”.

On to B8, for which the binding entry is “binds”.

As for B5, the binding result is reported as “binds”.

As for B6, the binding entry is listed as “binds”.

Take B7: the binding result was “binds”.
